According to patent US9549978B2, “Amino acid sequences for controlling pathogens” (CENTRO DE INGENIERIA GENETICA Y BIOTECHNOLOGIA, priority 2011, dated 2017):
Some entries share one result that the patent states for a list of compounds.

Columns and labels:
[1] = tested on: S. aureus; assay: Protection of mice from lethal intraperitoneal infection, peptide intraperitoneally; type: in vivo, mice (ICR); conditions: peptide 0.5 mg/kg intraperitoneally, control group 90-100%, range printed jointly for both bacteria and both peptides
[2] = tested on: P. aeruginosa; assay: as above; type: in vivo, mice (ICR); conditions: peptide 0.5 mg/kg intraperitoneally, control group 90-100%, range printed jointly for both bacteria and both peptides

For “FIHHIIGGLFSAGKAIHRLIRRRRR [Oreochromicin II, also recombinant or chemically synthesized]”, the mortality [1] was 5-29% and the mortality [2] was 5-29%.

With “FIHHIIGGLFSVGKHIHGLIHGH [Oreochromicin I, also recombinant or chemically synthesized]” the mortality [1] was 5-29% and the mortality [2] was 5-29%.
